This note sets out measurements from paper PMC4022726.

The chains behind the UniProt entries cited, without tags or fusion partners.
UniProt P53678, whole entry: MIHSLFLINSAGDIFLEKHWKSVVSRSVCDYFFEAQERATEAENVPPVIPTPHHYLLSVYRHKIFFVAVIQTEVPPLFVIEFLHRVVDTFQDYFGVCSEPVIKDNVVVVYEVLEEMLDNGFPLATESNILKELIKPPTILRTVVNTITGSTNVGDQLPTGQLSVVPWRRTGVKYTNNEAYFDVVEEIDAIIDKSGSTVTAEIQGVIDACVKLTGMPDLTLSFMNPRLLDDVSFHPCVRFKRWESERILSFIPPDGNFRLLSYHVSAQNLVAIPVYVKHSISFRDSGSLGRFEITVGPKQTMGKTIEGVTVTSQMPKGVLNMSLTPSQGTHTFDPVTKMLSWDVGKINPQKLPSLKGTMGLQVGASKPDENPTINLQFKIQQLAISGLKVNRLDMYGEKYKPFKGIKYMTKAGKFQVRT

For assay [1], the target named is NiV-F cytosolic tail (residues 519-546) (Nipah virus) (UniProt Q9IH63). Put plainly: two-hybrid.
For assay [2], the target named is NiV-G cytosolic tail (residues 1-45) (Nipah virus) (UniProt Q9IH62). Put plainly: two-hybrid.

Results are given in words; binding and its absence hold for the method and conditions named.

With “μ3B subunit of AP-3 (Gal4 activation domain fusion) (from UniProt P53678 1-418)”, the binding result in assay [1] and in assay [2] was “no binding” each time.
